# Experimental data as given in PubChem BioAssay AID256 (DTP/NCI, 2004).
# The list does not hold the whole screen: it is rich in T/C values a quarter to a half above the control, in often repeated tests (any T/C) and in doses without a T/C. Other doses and runs of a compound stand elsewhere. T/C gives the treated animals as a percentage of the vehicle group. Some entries give survivors of the animals treated and no T/C: the source files T/C as zero there, which appears to mark a toxic dose or a test without result, not a measured value. Some doses without a T/C left all or most animals alive at the check, yet need not have been tolerated: the source hardly ever lists a survival T/C far under the control, and the zero likely stands for such cases as well. Survivors were counted at the toxicity check, usually on the fifth day, unless a day is given; later deaths do not show. Schedule codes are those of the source, taken here to give the interval after Q, in days (D) or hours (H), and the number of doses after X. Some entries were tested several times; the values are given in rising order. Additions like (4×) give the number of equal values in this list. For survival time, this PubChem deposit counts one and a half times the control or more as active, and values a quarter to a half above the control carry no call in these data; other NCI protocols may use other cut-offs. Some T/C values carry the count of animals alive at the toxicity check (mostly the fifth day); without a count, all were alive then.
# Tested on: CD2F1 mice, L1210 leukemia ip, survival T/C
# Test: NCI In Vivo Anticancer Drug Screen. Data for tumor model L1210 Leukemia (intraperitoneal) in CD2F1 (CDF1) mice
# Conditions: higher T/C = longer survival
# In short: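 Vehicle-treated tumor-bearing mice served as controls (C) for compound-treated mice (T). Reported figure is T divided by C.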
# [1] = T/C endpoint: mean survival time, dose: 12.5 mg/kg/injection, schedule: Q01DX009 (ip), vehicle: saline
# [2] = T/C endpoint: mean survival time, dose: 25.0 mg/kg/injection, schedule: Q01DX009 (ip), vehicle: saline
# [3] = T/C endpoint: mean survival time, dose: 100.0 mg/kg/injection, schedule: Q04DX003 (ip), vehicle: saline
# [4] = T/C endpoint: mean survival time, dose: 200.0 mg/kg/injection, schedule: Q04DX003 (ip), vehicle: saline
# [5] = T/C endpoint: mean survival time, dose: 400.0 mg/kg/injection, schedule: Q04DX003 (ip), vehicle: saline
# [6] = T/C endpoint: mean survival time, dose: 200.0 mg/kg/injection, schedule: Q01DX009 (ip), vehicle: saline with Tween-80
# [7] = T/C endpoint: mean survival time, dose: 400.0 mg/kg/injection, schedule: Q04DX002 (ip), vehicle: saline with Tween-80
# [8] = T/C endpoint: mean survival time, dose: 300.0 mg/kg/injection, schedule: Q01DX001 (ip), vehicle: saline
# [9] = T/C endpoint: mean survival time, dose: 200.0 mg/kg/injection, schedule: Q01DX001 (ip), vehicle: saline with Tween-80
# [10] = T/C endpoint: mean survival time, dose: 400.0 mg/kg/injection, schedule: Q01DX009 (ip), vehicle: saline with Tween-80
# [11] = T/C endpoint: mean survival time, dose: 400.0 mg/kg/injection, schedule: Q04DX003 (ip), vehicle: saline with Tween-80
# [12] = T/C endpoint: mean survival time, dose: 400.0 mg/kg/injection, schedule: Q01DX001 (ip), vehicle: saline
# [13] = T/C endpoint: mean survival time, dose: 100.0 mg/kg/injection, schedule: Q01DX009 (ip), vehicle: Klucel (hydroxypropylcellulose) (HPC)
# [14] = T/C endpoint: mean survival time, dose: 200.0 mg/kg/injection, schedule: Q04DX003 (ip), vehicle: saline with Tween-80
# [15] = T/C endpoint: median survival time, dose: 400.0 mg/kg/injection, schedule: Q01DX005 (ip), vehicle: saline with Tween-80
compound,measurement,setting,value
C=C(CN(C)C)c1ccccn1,survivor count,"T/C endpoint: mean survival time, dose: 150.0 mg/kg/injection, schedule: Q01DX001 (ip), vehicle: other",1 of 6
same,survivor count,"T/C endpoint: mean survival time, dose: 300.0 mg/kg/injection, schedule: Q01DX001 (ip), vehicle: other",0 of 6
CC(=O)OCC1C(OC(C)=O)CC2CCC1N2C#N (stereo unspecified),survivor count,"T/C endpoint: mean survival time, dose: 100.0 mg/kg/injection, schedule: Q04DX002 (ip), vehicle: Klucel (hydroxypropylcellulose) (HPC)",3 of 3
same,survivor count,"T/C endpoint: mean survival time, dose: 400.0 mg/kg/injection, schedule: Q04DX002 (ip), vehicle: Klucel (hydroxypropylcellulose) (HPC)",3 of 3
[CH3][Sn]([Br])([Br])[CH2]CCCBr,survivor count,[1],3 of 3
same,survivor count,[2],0 of 3
CCN(CCO)c1ccc(N)cc1C,survivor count,[3],0 of 6
same,survivor count,[4],0 of 6
same,survivor count,[5],0 of 6
O=NN(CCF)C(=O)NC1C(O)CCCC1O (stereo unspecified),T/C,"T/C endpoint: median survival time, dose: 1.25 mg/kg/injection, schedule: Q04DX002 (ip), vehicle: saline",125 % of control
same,T/C,"T/C endpoint: median survival time, dose: 2.5 mg/kg/injection, schedule: Q04DX002 (ip), vehicle: saline",130 % of control
same,survivor count,"T/C endpoint: median survival time, dose: 80.0 mg/kg/injection, schedule: Q04DX002 (ip), vehicle: saline",3 of 6
same,survivor count,"T/C endpoint: median survival time, dose: 160.0 mg/kg/injection, schedule: Q04DX002 (ip), vehicle: saline",2 of 6
same,survivor count,"T/C endpoint: median survival time, dose: 320.0 mg/kg/injection, schedule: Q04DX002 (ip), vehicle: saline",0 of 6
OC(CC1=NNC(=S)NC1)(C(F)(F)F)C(F)(F)F,survivor count,[6],0 of 6
S=C(NCc1ccccc1)Nc1ncn[nH]1,survivor count,"T/C endpoint: mean survival time, dose: 200.0 mg/kg/injection, schedule: Q01DX001 (ip), vehicle: carboxymethylcellulose (CMC)",5 of 5
O=C(Nc1ccc(F)cc1)Nc1ccc(F)cc1,survivor count,[7],3 of 3
O=C1CCCCCC2=NC12 (stereo unspecified),survivor count,"T/C endpoint: median survival time, dose: 100.0 mg/kg/injection, schedule: Q01DX009 (ip), vehicle: Klucel (hydroxypropylcellulose) (HPC)",1 of 6
C1=[N+](c2ccccc2)CCN1c1ccccc1,survivor count,[8],0 of 6
OC1C=C(c2ccccc2)C(c2ccccc2)C(c2ccccc2)C1 (stereo unspecified),survivor count,[9],6 of 6
c1cc(CSc2ncnc3nc[nH]c23)ccn1,T/C,"T/C endpoint: mean survival time, dose: 600.0 mg/kg/injection, schedule: Q01DX001 (ip), vehicle: saline",134 % of control
CC(=O)c1ccc(N=NNc2ccc(C(C)=O)cc2)cc1,survivor count,[10],3 of 6
CCCc1c(C)[nH]c2ccc(C)cc12,survivor count,"T/C endpoint: mean survival time, dose: 200.0 mg/kg/injection, schedule: Q01DX009 (ip), vehicle: saline",3 of 6
same,survivor count,[11],5 of 6
CC(=O)NC1=C(NC(C)C)C(=O)c2ccccc2C1=O,survivor count,[3],0 of 6
same,survivor count,[4],0 of 6
same,survivor count,[5],0 of 6
Nc1ccc(O)c(N)c1,survivor count,"T/C endpoint: mean survival time, dose: 100.0 mg/kg/injection, schedule: Q01DX001 (ip), vehicle: saline",0 of 6
same,survivor count,"T/C endpoint: mean survival time, dose: 200.0 mg/kg/injection, schedule: Q01DX001 (ip), vehicle: saline",0 of 6
same,survivor count,[12],0 of 6
Cc1cc(O)c(C(C)C)cc1N(C)C (tested in a mixture with another compound),survivor count,"T/C endpoint: mean survival time, dose: 1.0 mg/kg/injection, schedule: Q04DX003 (ip), vehicle: saline",2 of 6
same,survivor count,"T/C endpoint: mean survival time, dose: 2.0 mg/kg/injection, schedule: Q01DX001 (ip), vehicle: saline",0 of 6
same,survivor count,"T/C endpoint: mean survival time, dose: 3.75 mg/kg/injection, schedule: Q01DX001 (ip), vehicle: saline",0 of 6
same,survivor count,"T/C endpoint: mean survival time, dose: 7.5 mg/kg/injection, schedule: Q01DX001 (ip), vehicle: saline",0 of 6
same,survivor count,"T/C endpoint: mean survival time, dose: 15.0 mg/kg/injection, schedule: Q01DX001 (ip), vehicle: saline",0 of 6
same,survivor count,"T/C endpoint: mean survival time, dose: 18.8 mg/kg/injection, schedule: Q01DX001 (ip), vehicle: saline",0 of 6
same,survivor count,"T/C endpoint: mean survival time, dose: 37.5 mg/kg/injection, schedule: Q01DX001 (ip), vehicle: saline",0 of 6
same,survivor count,"T/C endpoint: mean survival time, dose: 75.0 mg/kg/injection, schedule: Q01DX001 (ip), vehicle: saline",0 of 6
CCCCCCCCCCCCCCCCCC(=O)NNCCO,survivor count,[10],0 of 6
CC[P+]1(c2ccccc2)CCCc2ccc3ccccc3c21 (stereo unspecified),survivor count,"T/C endpoint: mean survival time, dose: 50.0 mg/kg/injection, schedule: Q04DX003 (ip), vehicle: saline",0 of 6
Cc1cc([N+](=O)[O-])c(S(N)(=O)=O)c([N+](=O)[O-])c1,survivor count,[13],6 of 6
same,survivor count,"T/C endpoint: mean survival time, dose: 200.0 mg/kg/injection, schedule: Q01DX009 (ip), vehicle: Klucel (hydroxypropylcellulose) (HPC)",3 of 6
same,survivor count,"T/C endpoint: mean survival time, dose: 400.0 mg/kg/injection, schedule: Q01DX009 (ip), vehicle: Klucel (hydroxypropylcellulose) (HPC)",0 of 6
O=C/C(Cl)=C(/Cl)C(=O)O,survivor count,"T/C endpoint: mean survival time, dose: 40.0 mg/kg/injection, schedule: Q01DX009 (ip), vehicle: saline with Tween-80",2 of 6
same,survivor count,"T/C endpoint: mean survival time, dose: 100.0 mg/kg/injection, schedule: Q04DX002 (ip), vehicle: saline with Tween-80",0 of 3
same,survivor count,"T/C endpoint: mean survival time, dose: 200.0 mg/kg/injection, schedule: Q04DX002 (ip), vehicle: saline with Tween-80",0 of 3
same,survivor count,[7],0 of 3
CC1(C)N=C(N)N=C(N)N1c1ccc(CNC(=O)Nc2cccc(S(=O)(=O)F)c2)cc1,T/C,[1],127 % of control
same,T/C,"T/C endpoint: mean survival time, dose: 50.0 mg/kg/injection, schedule: Q01DX009 (ip), vehicle: saline",135 % of control
CCCCC1(C(C)CC(C)(C)C)NC(C)(C)CC(C)O1 (stereo unspecified),survivor count,[14],6 of 6
same,survivor count,[11],2 of 6
CNc1ncn(-c2c(C)cccc2C)c(=O)n1,survivor count,"T/C endpoint: median survival time, dose: 200.0 mg/kg/injection, schedule: Q01DX005 (ip), vehicle: saline with Tween-80",3 of 6
same,T/C,[15],130 [5 of 6 alive] and 139 % of control
same,survivor count,[15],5 of 6
same,survivor count,"T/C endpoint: median survival time, dose: 800.0 mg/kg/injection, schedule: Q01DX005 (ip), vehicle: saline with Tween-80",0 of 6 (2×) and 2 of 6
CC1(C)N=C(N)N=C(N)N1c1ccc(CCC(=O)Nc2ccc(S(=O)(=O)F)cc2)c(Cl)c1,T/C,[2],129 % of control
same,T/C,"T/C endpoint: mean survival time, dose: 50.0 mg/kg/injection, schedule: Q01DX009 (ip), vehicle: water",125 % of control
same,survivor count,"T/C endpoint: mean survival time, dose: 100.0 mg/kg/injection, schedule: Q01DX009 (ip), vehicle: water",0 of 6
C[n+]1ccn(Cc2ccc([N+](=O)[O-])cc2)c1,survivor count,[12],0 of 6
C[N+]12CCC34C5=CC(=O)C(=O)C=C5[N+]5(C)C(=O)CC6OCC=C(C1)C(CC32)C6C45 (stereo unspecified),survivor count,"T/C endpoint: mean survival time, dose: 150.0 mg/kg/injection, schedule: Q01DX001 (ip), vehicle: saline",3 of 6
same,survivor count,[8],2 of 6
Nc1ncnc2nc(-c3ccc(OCCCOc4ccccc4)c(Cl)c3)[nH]c12,survivor count,"T/C endpoint: mean survival time, dose: 100.0 mg/kg/injection, schedule: Q01DX001 (ip), vehicle: saline with Tween-80",6 of 6
same,survivor count,[9],6 of 6
same,survivor count,"T/C endpoint: mean survival time, dose: 400.0 mg/kg/injection, schedule: Q01DX001 (ip), vehicle: saline with Tween-80",6 of 6
Cc1cc(C)c(C(Br)C(Br)c2c(C)cc(C)cc2C)c(C)c1 (stereo unspecified),survivor count,"T/C endpoint: mean survival time, dose: 100.0 mg/kg/injection, schedule: Q04DX003 (ip), vehicle: saline with Tween-80",6 of 6
same,survivor count,[14],6 of 6
same,survivor count,[11],5 of 6
O=C(CNC(=O)Nc1cccc(C(F)(F)F)c1)N/N=C/c1cc(Br)ccc1O,survivor count,[6],3 of 3
O=C(C#Cc1ccccc1)c1ccccc1,survivor count,"T/C endpoint: mean survival time, dose: 50.0 mg/kg/injection, schedule: Q01DX009 (ip), vehicle: Klucel (hydroxypropylcellulose) (HPC)",2 of 6
same,survivor count,[13],0 of 6 and 4 of 6
Cc1ccc(NC(=O)N(CCCl)N=O)cc1,T/C,"T/C endpoint: mean survival time, dose: 5.4 mg/kg/injection, schedule: Q01DX015 (ip), vehicle: saline",136 % of control
